Results: US20260152543A1 (KRIYA THERAPEUTICS, published 2026)

The chains behind the UniProt entries cited, without tags or fusion partners. Where a name states a change or a piece, a line headed by the entry shows the natural chain unless it says otherwise. Residues count along the entry.
UniProt P01024: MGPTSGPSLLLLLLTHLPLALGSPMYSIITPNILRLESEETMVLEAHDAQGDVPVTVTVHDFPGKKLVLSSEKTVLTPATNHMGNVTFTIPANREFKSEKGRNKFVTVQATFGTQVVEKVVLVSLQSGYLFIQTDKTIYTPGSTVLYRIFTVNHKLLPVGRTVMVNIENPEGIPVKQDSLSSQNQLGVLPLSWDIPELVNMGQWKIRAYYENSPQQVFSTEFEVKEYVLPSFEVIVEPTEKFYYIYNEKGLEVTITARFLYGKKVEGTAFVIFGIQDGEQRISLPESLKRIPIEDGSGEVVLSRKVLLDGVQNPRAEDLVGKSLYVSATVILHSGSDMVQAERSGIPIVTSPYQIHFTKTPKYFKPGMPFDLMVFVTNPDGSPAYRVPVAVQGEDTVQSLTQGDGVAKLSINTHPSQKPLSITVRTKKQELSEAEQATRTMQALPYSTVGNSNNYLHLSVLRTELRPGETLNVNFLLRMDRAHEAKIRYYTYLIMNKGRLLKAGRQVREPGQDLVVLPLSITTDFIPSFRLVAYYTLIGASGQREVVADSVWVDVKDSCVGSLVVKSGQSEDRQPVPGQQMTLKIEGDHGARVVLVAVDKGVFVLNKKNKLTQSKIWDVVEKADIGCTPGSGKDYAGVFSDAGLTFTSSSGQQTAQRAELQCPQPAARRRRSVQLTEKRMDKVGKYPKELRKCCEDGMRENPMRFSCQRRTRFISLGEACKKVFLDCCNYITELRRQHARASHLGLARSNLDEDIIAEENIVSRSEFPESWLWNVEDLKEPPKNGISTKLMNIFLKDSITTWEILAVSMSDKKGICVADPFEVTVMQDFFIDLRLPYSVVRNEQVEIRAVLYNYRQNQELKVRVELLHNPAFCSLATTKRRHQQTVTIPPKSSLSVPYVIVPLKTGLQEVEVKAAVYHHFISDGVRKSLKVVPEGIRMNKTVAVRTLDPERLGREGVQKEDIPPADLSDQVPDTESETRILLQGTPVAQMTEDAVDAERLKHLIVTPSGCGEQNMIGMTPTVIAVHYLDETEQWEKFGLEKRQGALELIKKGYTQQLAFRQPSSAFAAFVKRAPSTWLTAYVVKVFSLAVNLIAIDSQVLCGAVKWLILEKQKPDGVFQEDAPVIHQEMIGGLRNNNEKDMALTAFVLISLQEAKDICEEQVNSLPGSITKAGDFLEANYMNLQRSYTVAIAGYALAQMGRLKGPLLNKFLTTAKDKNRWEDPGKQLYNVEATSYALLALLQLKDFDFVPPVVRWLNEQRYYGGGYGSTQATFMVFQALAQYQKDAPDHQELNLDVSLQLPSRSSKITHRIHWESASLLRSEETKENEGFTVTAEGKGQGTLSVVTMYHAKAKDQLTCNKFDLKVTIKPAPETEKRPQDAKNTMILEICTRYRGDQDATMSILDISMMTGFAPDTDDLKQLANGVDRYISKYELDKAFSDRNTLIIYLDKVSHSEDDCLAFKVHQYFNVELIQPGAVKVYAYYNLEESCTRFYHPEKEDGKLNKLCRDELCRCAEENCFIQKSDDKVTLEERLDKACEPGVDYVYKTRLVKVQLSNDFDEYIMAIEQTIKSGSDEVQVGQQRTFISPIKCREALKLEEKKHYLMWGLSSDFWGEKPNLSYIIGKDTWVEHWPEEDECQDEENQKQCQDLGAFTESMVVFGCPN
UniProt P17927, residues 42-1971: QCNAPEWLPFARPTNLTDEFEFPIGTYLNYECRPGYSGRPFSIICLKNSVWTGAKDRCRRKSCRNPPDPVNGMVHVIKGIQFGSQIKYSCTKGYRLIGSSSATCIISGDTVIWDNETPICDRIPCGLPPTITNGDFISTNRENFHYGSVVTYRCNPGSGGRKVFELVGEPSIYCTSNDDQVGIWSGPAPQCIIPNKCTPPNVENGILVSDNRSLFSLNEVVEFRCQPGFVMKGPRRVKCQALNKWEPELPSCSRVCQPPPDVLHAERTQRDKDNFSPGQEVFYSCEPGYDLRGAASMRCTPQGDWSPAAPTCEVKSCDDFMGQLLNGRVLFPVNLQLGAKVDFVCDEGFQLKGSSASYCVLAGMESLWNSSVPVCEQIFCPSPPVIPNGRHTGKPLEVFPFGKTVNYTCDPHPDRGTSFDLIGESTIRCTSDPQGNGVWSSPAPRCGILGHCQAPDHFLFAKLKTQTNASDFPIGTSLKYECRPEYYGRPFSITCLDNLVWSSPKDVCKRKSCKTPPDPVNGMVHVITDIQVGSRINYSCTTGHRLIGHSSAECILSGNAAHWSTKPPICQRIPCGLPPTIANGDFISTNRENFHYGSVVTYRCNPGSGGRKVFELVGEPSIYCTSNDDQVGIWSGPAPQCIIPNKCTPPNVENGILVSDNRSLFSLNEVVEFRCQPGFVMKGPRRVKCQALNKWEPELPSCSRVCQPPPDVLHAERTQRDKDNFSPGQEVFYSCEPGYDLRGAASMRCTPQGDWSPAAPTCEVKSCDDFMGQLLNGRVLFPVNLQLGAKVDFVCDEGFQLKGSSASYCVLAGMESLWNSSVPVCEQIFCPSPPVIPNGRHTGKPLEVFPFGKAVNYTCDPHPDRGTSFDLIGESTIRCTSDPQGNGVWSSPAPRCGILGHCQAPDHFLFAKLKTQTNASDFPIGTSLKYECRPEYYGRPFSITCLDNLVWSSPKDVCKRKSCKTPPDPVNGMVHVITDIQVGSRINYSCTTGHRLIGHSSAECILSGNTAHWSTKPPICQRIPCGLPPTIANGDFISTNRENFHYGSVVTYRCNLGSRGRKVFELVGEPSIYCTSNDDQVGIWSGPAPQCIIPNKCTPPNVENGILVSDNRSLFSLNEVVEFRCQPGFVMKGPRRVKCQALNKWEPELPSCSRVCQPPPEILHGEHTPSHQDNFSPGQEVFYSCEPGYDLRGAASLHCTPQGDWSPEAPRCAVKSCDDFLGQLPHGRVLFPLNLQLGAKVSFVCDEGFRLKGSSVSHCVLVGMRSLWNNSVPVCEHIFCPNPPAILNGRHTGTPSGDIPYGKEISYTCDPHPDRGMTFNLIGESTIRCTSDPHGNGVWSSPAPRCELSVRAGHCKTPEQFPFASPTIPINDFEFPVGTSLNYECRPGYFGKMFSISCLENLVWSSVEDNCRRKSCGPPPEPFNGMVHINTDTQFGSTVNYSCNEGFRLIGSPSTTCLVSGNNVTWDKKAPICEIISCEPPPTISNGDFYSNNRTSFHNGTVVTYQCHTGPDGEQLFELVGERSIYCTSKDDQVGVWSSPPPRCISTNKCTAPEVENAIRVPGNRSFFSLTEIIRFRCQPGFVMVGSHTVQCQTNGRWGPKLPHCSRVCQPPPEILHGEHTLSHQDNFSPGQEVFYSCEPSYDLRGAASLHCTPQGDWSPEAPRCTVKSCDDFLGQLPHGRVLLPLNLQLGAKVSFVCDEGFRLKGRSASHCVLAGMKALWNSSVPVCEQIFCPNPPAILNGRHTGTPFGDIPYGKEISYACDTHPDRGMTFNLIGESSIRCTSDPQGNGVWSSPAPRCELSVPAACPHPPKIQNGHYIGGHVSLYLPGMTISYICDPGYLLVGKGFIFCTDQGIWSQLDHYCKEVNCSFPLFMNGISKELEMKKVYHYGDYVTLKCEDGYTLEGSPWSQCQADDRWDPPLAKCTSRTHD

Target: C3b (Complement Tech) (UniProt P01024)
Assay: SPR (Biacore 8K), His-tagged CR1 captured as ligand on a CM5 chip through anti-His antibody, C3b injected as analyte, 150 s association, 300 s dissociation

binding: binds
Substance: Recombinant His-tagged human CR1 (R&D Systems) (from UniProt P17927 42-1971) (receptor)

Results are given in words; binding and its absence hold for the method and conditions named. Binding can be weak; no strength is given.
